{"source": "patent US10920265B2", "about": "“Compounds and methods for detection of enzymes that remove methyl succinyl groups from epsilon-amino lysine moieties” (Enzo Life Sciences, Inc., priority 2011, dated 2021)", "target": "T1, SIRT5 (Homo sapiens, UniProt Q9NXA8)", "T1 sequence (Q9NXA8 37-310)": "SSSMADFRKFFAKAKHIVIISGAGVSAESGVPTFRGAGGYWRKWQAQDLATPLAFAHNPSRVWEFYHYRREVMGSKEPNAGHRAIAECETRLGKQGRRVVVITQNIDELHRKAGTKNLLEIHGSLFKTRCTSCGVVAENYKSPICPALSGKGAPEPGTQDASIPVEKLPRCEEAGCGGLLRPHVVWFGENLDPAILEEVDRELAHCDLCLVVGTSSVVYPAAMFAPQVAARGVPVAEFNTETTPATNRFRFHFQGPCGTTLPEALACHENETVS", "assay": "SIRT5 desuccinylation/deacetylation of fluorogenic lysyl substrates, trypsin developer", "type": "biochemical", "design": "purchased Enzo Life Sciences BML-SE555", "experimental": "FIG. 3 is graphs showing that SIRT5 catalyzes NAD^+-dependent desuccinylation of Ac-Lys(ε-succinyl)-AMC far more efficiently than NAD^+-dependent deacetylation of Ac-Arg-His-Lys-Lys(ε-acetyl)-AMC. Fifty μl reactions in Assay Buffer (50 mM Tris/HCl, pH 8.0, 137 mM NaCl, 2.7 mM KCl, 1 mM MgCl2, 1 mg/ml BSA) included 50 μM of either Ac-Lys(ε-succinyl)-AMC or Ac-Arg-His-Lys-Lys(ε-acetyl)-AMC, and, where indicated, 500 μM NAD^+ and 5 μg recombinant human SIRT5 (Enzo Life Sciences Cat. # BML-SE555). […] AMC fluorescence was read in a Cytofluor II plate-reading fluorimeter (Perseptive Biosystems) at wavelengths 360 nm (excitation)/460 nm (emission), Gain 54. […]\nFIG. 4 is a graph showing that Ac-Lys(Succ.)-AMC enables SIRT5 assay at low enzyme concentrations. […] AMC fluorescence was read in a Synergy 2 plate-reading fluorimeter (BioTek) at wavelengths 360 nm (excitation)/460 nm (emission), Gain 40. […]\nFIG. 5 is graphs showing dependence of SIRT5 initial rate kinetics on the concentrations of Ac-Lys(Succ.)-AMC and Ac-Lys(Ac.)-AMC. […] AMC fluorescence was read in a Synergy 2 plate-reading fluorimeter (BioTek) at wavelengths 360 nm (excitation)/460 nm (emission), Gain 40. […] Fluorescence differences were converted to specific activities (pmol/min/μg) by measuring the fluorescence increase due to the addition a standard solution of AMC (5 μl of a […]). […]", "note": "The name of at least one read-out is uncertain."}
{"smiles": "CC(=O)N[C@@H](CCCCNC(=O)CCC(=O)O)C(=O)Nc1ccc2c(C)cc(=O)oc2c1", "note": "[Compound 1, N—(N^α-acetyl-L-Lysine(N^ε-succinyl))-AMC]", "values": [{"measurement": "kcat/Km", "setting": "varied substrate: Lysyl, 1 mM NAD^+", "value": 2450, "unit": "s^−1M^−1"}, {"measurement": "kcat/Km", "setting": "varied substrate: NAD^+, constant 0.5 mM Ac-Lys(Succ.)-AMC", "value": 798, "unit": "s^−1M^−1"}]}
